# PubChem BioAssay AID1671195, Yale University | 2021
# Aim: 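Genes whose knockdown alters LDL uptake in liver cancer cells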 (primary screen)
# Cell system: human Huh7 hepatoma cells
# Reagent: siRNA pool against human genes, 18 nM
# Timing: about 2 to 2.5 days of knockdown, then 8 h LDL uptake
# Conditions: DiI-labelled LDL at 30 µg/ml for 8 h, in lipoprotein-deficient serum medium
# Measurement: 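Per-cell DiI-LDL intensity by automated imaging; well means scaled to the plate median and given as a robust z-score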
# Scale: robust z-score: higher = more LDL uptake after knockdown
# Call rule: 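Active when two or more replicates show a robust z-score above 2 or below -2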
# The whole screen tested about 22,000 reagents; below is a random part of them. About 1,510 of them (6.9%) were called active. 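Active includes knockdowns raising or lowering LDL uptake; positive z-scores mean more uptake, negative mean less.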 A number with no mark means an inactive call. The numbers tell different reagents against one gene apart. No sequences are given here.
gene knocked down,pool no.,"robust z-score, replicate 1","robust z-score, replicate 2","robust z-score, replicate 3"
EMILIN2 (GeneID 84034),1,-0.957,-0.819,-0.993
SHC3 (GeneID 53358),1,0.138,2.47,-1.07
PEX39 (GeneID 441150),1,0.525,0.378,0.692
RASGEF1A (GeneID 221002),1,-0.452,-0.724,-0.412
CLVS1 (GeneID 157807),1,-0.725,0.731,-0.667
TM2D2 (GeneID 83877),1,-0.286,-0.393,0.0281
PIK3R2 (GeneID 5296),1,-0.777,-1.99,-1.4
PLEKHH3 (GeneID 79990),1,-0.902,-0.102,-0.431
COLQ (GeneID 8292),1,-1.51,-1.5,-1.76
NEBL (GeneID 10529),1,0.0411,-0.265,-0.526
NEBL (GeneID 10529),2,-1.51,-1.54,-1.73
OR2A2 (GeneID 442361),1,0.416,0.121,0.0139
ZNF711 (GeneID 7552),1,-1.25,-0.827,-0.645
SELENON (GeneID 57190),1,-0.28,-0.135,-0.142
PAN2 (GeneID 9924),1,0.0757,0.156,0.264
ZMYM3 (GeneID 9203),1,-0.595,-1.1,-2.01
TNNC1 (GeneID 7134),1,-0.239,0.9,-0.263
H2AC6 (GeneID 8334),1,-0.231,2.11,-0.343
LSM4 (GeneID 25804),1,0.472,0.764,1.05
LAMB3 (GeneID 3914),1,-1.08,-0.99,-1.02
LRRC34 (GeneID 151827),1,-0.339,-0.0323,-0.9
PSAT1 (GeneID 29968),1,-0.404,-0.384,0.138
LOC219414 (retired record) (GeneID 219414),1,2.27 (active),2.06,2.12
ZNF501 (GeneID 115560),1,-0.496,-0.732,-0.558
LOC342669 (retired record) (GeneID 342669),1,-0.817,-0.806,-0.835
HSD17B7 (GeneID 51478),1,-1.3,-1.03,-1.13
PNOC (GeneID 5368),1,0.708,0.432,0.803
PTCHD3P1 (GeneID 387647),1,-0.632,-0.169,-0.354
LUC7L2 (GeneID 51631),1,-1.43,-1.11,-0.237
CXCL17 (GeneID 284340),1,-1.47,-1.31,-1.56
PRDM4 (GeneID 11108),1,0.347,-0.00646,-0.138
LOC441745 (retired record) (GeneID 441745),1,-0.186,-0.182,-0.132
HS3ST4 (GeneID 9951),1,4.5 (active),3.3,4.67
ADGRB3 (GeneID 577),1,-1.16,-1.56,-1.84
POM121L12 (GeneID 285877),1,1.59,1.52,1.71
LOC338914 (retired record) (GeneID 338914),1,0.591,0.467,0.247
NAE1 (GeneID 8883),1,0.034,-0.971,-1.61
KCNK3 (GeneID 3777),1,-0.00187,-0.826,0.303
SCGB3A1 (GeneID 92304),1,1.2,-0.373,-0.0313
FHOD1 (GeneID 29109),1,1.08,0.654,1.9
COX6B1 (GeneID 1340),1,-0.782,-0.88,-1.07
GALNT3 (GeneID 2591),1,0.387,-0.0702,0.234
NVL (GeneID 4931),1,0.0752,-0.103,0.299
PSMA4 (GeneID 5685),1,-0.154,0.673,0.212
SRSF6 (GeneID 6431),1,-1.05,-1.31,-0.531
RANBP3L (GeneID 202151),1,-1.2,-1.35,-1.34

An excerpt taken from the entries so far, as a working copy:
gene knocked down,pool no.,"robust z-score, replicate 1","robust z-score, replicate 2","robust z-score, replicate 3"
EMILIN2 (GeneID 84034),1,-0.957,-0.819,-0.993
SHC3 (GeneID 53358),1,0.138,2.47,-1.07
PEX39 (GeneID 441150),1,0.525,0.378,0.692
RASGEF1A (GeneID 221002),1,-0.452,-0.724,-0.412
CLVS1 (GeneID 157807),1,-0.725,0.731,-0.667
TM2D2 (GeneID 83877),1,-0.286,-0.393,0.0281
PIK3R2 (GeneID 5296),1,-0.777,-1.99,-1.4
PLEKHH3 (GeneID 79990),1,-0.902,-0.102,-0.431
